PubChem BioAssay AID624297 (National Center for Advancing Translational Sciences (NCATS), 2012)
The campaign covered roughly 340,000 compounds. About 6,200 (1.8%) were called active. The shares of active, inactive and inconclusive entries below differ from those in the screen. The call rests on the fitted dose curve; in most records, active means well fitted activation curve with a large enough effect; inconclusive means small, poorly fitted or top-dose-only effect; inactive means no such curve, though single readings can be large or run the other way. Potencies beside an inconclusive call are fits to weak or partial responses and may not hold up.

Assay: A quantitative high throughput screen for small molecules that induce DNA re-replication in SW480 colon adenocarcinoma cells. Further: nearly all actives have a fitted effect of over 55% in size. On re-replication activation: % of control where 0% means no effect.
Details: Hoechst DNA content imaging, 48 h; re-replication activation: at 46.1 µM (top of the series) unless noted
Summary of the method: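 Image-based DNA-content assay: after two days of treatment, nuclei were labelled with the DNA dye Hoechst and imaged, and hits were compounds raising the count of nuclei showing high fluorescence intensity.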
Potency means the concentration at half of the fitted maximal effect.

| Structure (SMILES) | re-replication activation | Potency |
| --- | --- | --- |
| CC[C@]12c3[nH]c4ccc(Cl)cc4c3CCN1C(=O)[C@@H](CC(=O)NC/C=C(\C)CCC=C(C)C)C[C@@H]2C(=O)N1CCN(C(=O)c2ccco2)CC1 | inactive: 8.85% | – |
| N=c1c(C(=O)NCCc2ccccc2)cc2c(=O)n3ccccc3nc2n1CC1CCCO1 (centres undefined) | – | active: 2.59 µM |
| Cn1c(Cc2cccc3ccccc23)nnc1SCC(=O)N1CCN(c2ccccc2)CC1 | inactive: 12.4% | – |
| COc1ccc(CNC(=O)c2cc3c(=O)n4ccccc4nc3n(CC3CCCO3)c2=N)cc1 (centres undefined) | – | inconclusive: 14.6 µM [activator, partial curve] |
| Cc1cc(C(=O)CN2C(=O)C(=O)N(Cc3ccco3)C2=O)c(C)n1CCc1ccccc1 | – | inconclusive: 18.4 µM [activator, single point] |
| CC(=O)Nc1ccc(NC(=O)C(c2ccccc2)c2ccccc2)cc1 | inactive: 23.8% | – |
| CCN(CC(=O)Nc1ccc(NC(C)=O)cc1)C(=O)CN1C(=O)NC(C)(c2ccc3ccccc3c2)C1=O (centres undefined) | – | inconclusive: 10.3 µM [activator, partial curve, poor fit] |
| Cc1cccc2sc(N(CCCN(C)C)C(=O)c3ccco3)nc12 | – | inconclusive: 18.4 µM [activator, single point] |
| COC(=O)[C@@]1(Cc2ccc(F)cc2)[C@H]2c3cc(C(=O)N4CCCC4)n(CCc4ccc(O)c(O)c4)c3C[C@H]2CN1C(=O)c1ccccc1 | inactive: 5.83% | – |
| CCN1C(=O)[C@H]2[C@@H](c3ccc(Cl)cc3)N3C(=O)CN(CC4CC4)C(=O)[C@@]3(C)[C@H]2C1=O | – | inconclusive: 6.51 µM [activator, single point] |
| Cc1cc(C)c(S(=O)(=O)c2cccc(Cl)c2)c(=O)[nH]1 | inactive: -0.406% | – |
| CCOc1cc(C(=S)N2CCOCC2)ccc1OC(=O)/C=C/c1ccc(OC)c(OC)c1 | – | inconclusive: 14.6 µM [activator, partial curve, poor fit] |
| CCc1cccc(C)c1NC(=O)CCCSc1nc2ccccc2s1 | inactive: -2.81% | – |
| Nc1nonc1-n1nnc(C(=O)N/N=C/c2cccc(Cl)c2)c1-c1ccc2c(c1)OCO2 | – | inconclusive: 25.9 µM [activator, single point] |
| CCCC(=O)Oc1ccc(C2NC(=O)c3ccccc3O2)cc1 (centres undefined) | – | inconclusive: 7.31 µM [activator, partial curve, poor fit] |
| O=C(NNC(=O)c1ccc(-n2cncn2)c([N+](=O)[O-])c1)c1cccc(Cl)c1 | inactive: 25.6% | – |
| CCCc1cnc(NCCNCC(O)COc2ccc(Cl)c(Cl)c2)nc1 (centres undefined) | – | inconclusive: 29.1 µM [activator, single point] |
| NC(=S)N/N=C\c1c2ccccc2cc2ccccc12 | – | inconclusive: 18.4 µM [activator, single point] |
| O=C(O)COc1nn(Cc2ccccc2)c2ccccc12 | inactive: -3.09% | – |
| CCCCCCCn1c2c(c(=N)c3ccccc31)CCC2 | inconclusive: 33.9% [activator] | – |
| [O-][n+]1cccc(C(O)c2ccccc2)c1 (centres undefined) | – | inconclusive: 7.31 µM [activator, single point] |
| NC(=O)NCC(=O)N1CCC(C(O)(c2ccccc2)c2ccccc2)CC1 | – | inconclusive: 0.82 µM [activator, full curve, poor fit] |
| CCN(CC)CCNC(=O)CNC(=O)c1nn(-c2ccc(OC)cc2OC)c(=O)c2ccccc12 | inactive: -0.101% | – |

Four compounds picked at random from those above, as already listed:

| Structure (SMILES) | re-replication activation | Potency |
| --- | --- | --- |
| CCN1C(=O)[C@H]2[C@@H](c3ccc(Cl)cc3)N3C(=O)CN(CC4CC4)C(=O)[C@@]3(C)[C@H]2C1=O | – | inconclusive: 6.51 µM [activator, single point] |
| CCc1cccc(C)c1NC(=O)CCCSc1nc2ccccc2s1 | inactive: -2.81% | – |
| Cc1cc(C(=O)CN2C(=O)C(=O)N(Cc3ccco3)C2=O)c(C)n1CCc1ccccc1 | – | inconclusive: 18.4 µM [activator, single point] |
| CCN(CC)CCNC(=O)CNC(=O)c1nn(-c2ccc(OC)cc2OC)c(=O)c2ccccc12 | inactive: -0.101% | – |

Additional entries.

| Structure (SMILES) | re-replication activation | Potency |
| --- | --- | --- |
| CCOC(=O)c1[nH]c2ccc(OC)cc2c1NC(=S)N1CCN(c2ccccc2OC)CC1 | – | inconclusive: 18.4 µM [activator, single point] |
| CC(=O)N[C@@H]1[C@@H](O)[C@@H]2OC(c3ccccc3)OC[C@H]2O[C@@H]1N=[N+]=[N-] (some centres undefined) | inactive: 0.379% | – |
| O=C(NNc1nc2c(F)cc(F)cc2s1)C1=COCCO1 | inactive: -0.588% | – |
| O=C(Nc1ccc2[nH]ncc2c1)c1ccccc1Br | – | inconclusive: 20.6 µM [activator, single point] |
| O=C(OCc1cccc(Cl)c1)c1cc([N+](=O)[O-])ccc1N1CCOCC1 | – | inconclusive: 29.1 µM [activator, single point] |
| CCC(=O)Nc1cccc(C(=O)c2ccc(C)c(C)c2)c1 | inactive: -23.2% | – |
| CC[C@]12c3[nH]c4ccccc4c3CCN1C(=O)C(CC(=O)NCc1cccc(C(F)(F)F)c1)C[C@@H]2C(=O)N1CCN(C(=O)c2ccco2)CC1 (some centres undefined) | inactive: 23.7% | – |
| COCCCn1c(-c2cccs2)nc2nc3ccccc3nc21 | – | inconclusive: 1.3 µM [activator, full curve] |
| COc1ccc(/C(C)=N/NC(=O)c2nnn(-c3nonc3N)c2-c2cccs2)cc1OC | – | inconclusive: 6.51 µM [activator, single point] |
| COc1ccc(CN(C)CC(=O)Nc2cccc(S(N)(=O)=O)c2)c(OC)c1OC | – | inconclusive: 2.59 µM [activator, full curve, poor fit] |
| CCOC(=O)c1cc(-c2ccccc2)sc1NC(=O)C(C)N1C(=O)NC(C)(c2ccc(Cl)cc2)C1=O (centres undefined) | inactive: 6.09% | – |
| COc1ccc(-c2cc(C(=O)Oc3ccc([N+](=O)[O-])cc3)c3ccccc3n2)cc1 | – | inconclusive: 29.1 µM [activator, single point] |
| O=C(Nc1ncc2c(n1)-c1ccccc1CC2)c1ccc(Cl)cc1 | inactive: 13.7% | – |
| COC1=C(c2ccccc2)C(=O)c2ccccc2C1=O | – | inconclusive: 16.4 µM [activator, single point] |
| COc1cccc(-c2nc(-c3ccccc3)nc(N3CCN(C)CC3)c2C#N)c1 | – | inconclusive: 20.6 µM [activator, single point] |
| OCC1(CCCc2ccccc2)CCN(C2CCC2)CC1 | – | inconclusive: 0.0046 µM [activator, full curve, poor fit] |
| Cc1c(NC(=O)CSc2nnc3c4ccccc4n(CCc4ccccc4)c3n2)c(=O)n(-c2ccccc2)n1C | – | inconclusive: 18.4 µM [activator, single point] |
| CSc1nccc(NC(=O)c2ccc(C(C)(C)C)cc2)n1 | – | inconclusive: 0.291 µM [activator, partial curve, poor fit] |
| CCOC(=O)c1c(C)nc(C)c(C(=O)OCC)c1-c1ccc(O)c(OC)c1 | – | active: 3.66 µM |
| Cc1ccc(C)c(NS(=O)(=O)c2cc(C(=O)NCc3ccccn3)ccc2C)c1 | inactive: -0.479% | – |
| CCCOc1ccc(C(F)(F)F)cc1NC(=O)CCc1c(C)noc1C | – | inconclusive: 3.26 µM [activator, single point] |
| CC1(C)CC(=O)C(N=Nc2cc(Cl)c(Cl)c(Cl)c2)=C(O)C1 | inactive: -12.5% | – |
| COc1ccc(N2CCN(c3ncnc4scc(-c5ccc(F)cc5)c34)CC2)cc1 | – | inconclusive: 16.4 µM [activator, partial curve, poor fit] |

| Structure (SMILES) | re-replication activation | Potency |
| --- | --- | --- |
| CCOc1ccccc1N(CC(=O)Nc1ccccc1C(=O)N1CCCC1)S(C)(=O)=O | inactive: 13.7% | – |
| O=C(N/N=C/c1cc([N+](=O)[O-])cc([N+](=O)[O-])c1O)C(O)(c1ccccc1)c1ccccc1 | inactive: -1.04% | – |
| COc1ccc(C2C(C#N)=C(N)N(Nc3ccccc3)C3=C2C(=O)CC(C)(C)C3)cc1C (centres undefined) | – | inconclusive: 20.6 µM [activator, partial curve, poor fit] |
| CCN(Cc1ccc2c(c1)OCO2)C(=O)/C=C/c1cccc(Br)c1 | inactive: 8.79% | – |
| COc1ccc(CC(=O)Nc2ccc(-c3noc(-c4ccccc4OC)n3)cc2)cc1 | inactive: 1.53% | – |
| Cc1ccc(C(=O)Nc2nc(COc3ccccc3)cs2)s1 | – | inconclusive: 4.11 µM [activator, full curve, poor fit] |
| CCCn1c(=O)c(C(=O)NCc2ccccn2)c(O)c2ccccc21 | – | inconclusive: 25.9 µM [activator, single point] |
| CCCCCCSc1cc(-c2nc3cnccn3c2NCc2ccccc2)ccc1OC | – | inconclusive: 25.9 µM [activator, single point] |
| COc1cc(NC(=O)C2CC(=O)NC3=C2C(=O)CCC3)c(OC)cc1Cl (centres undefined) | inactive: 3.2% | – |
| Cc1ccc(-c2c(C(=O)N/N=C/c3ccncc3)nnn2-c2nonc2N)cc1 | – | inconclusive: 1.84 µM [activator, partial curve, poor fit] |
| COc1ccc(-n2ncc3c2CC(C)(C)CC3NC(=O)c2cn[nH]c2)cc1 (centres undefined) | inactive: 0.531% | – |
| O=C1NCC(c2ccccc2)C1C(=O)N/N=C\c1ccc(-c2ccc(Cl)c(Cl)c2)o1 (centres undefined) | inactive: -1.54% | – |
| COc1ccccc1C(=O)C(O)c1ccccc1OC (centres undefined) | – | inconclusive: 23.1 µM [activator, partial curve, poor fit] |
| Cc1ccc2nc(-c3ccc(NS(=O)(=O)c4ccc(F)c(F)c4)cc3)sc2c1 | – | inconclusive: 18.4 µM [activator, single point] |
| CCN(CC)S(=O)(=O)c1ccc2c(c1)C(=NO)c1cc(S(=O)(=O)N(CC)CC)ccc1-2 | – | inconclusive: 18.4 µM [activator, single point] |
| Cc1nc([N+](=O)[O-])c(C(=O)OCc2ccccc2)n1C | – | inconclusive: 0.164 µM [activator, single point] |
| CCN(CC)S(=O)(=O)c1cc(NC(=O)COC(=O)c2c(C)noc2C)ccc1C | – | inconclusive: 6.51 µM [activator, single point] |
| O=C1c2ccccc2-c2c1c1ccccc1c(=O)n2CCO | inactive: 23.7% | – |
| Cn1cc(Br)c(-c2cccc(N3C(=O)CCCC3=O)c2)n1 | inactive: -7.47% | – |
| CC(C)[C@H](NC(=O)N1CCC(Cc2ccccc2)CC1)C(=O)O | inactive: -15.3% | – |
| Fc1ccc(NC(=S)NC2CCCCC2)c(F)c1F | inactive: -0.41% | – |
| COc1ccccc1NC(=S)N(Cc1ccco1)Cc1cc2cc(C)cc(C)c2[nH]c1=O | – | active: 20.6 µM |
| Cc1cccc(NC(=S)NC2CC3CCCC(C2)N3Cc2ccccc2)c1C (centres undefined) | – | inconclusive: 25.9 µM [activator, single point] |
